The text below walks through data of patent US20070248607A1, “NEGATIVE IMMUNOMODULATION OF IMMUNE RESPONSES BY NKG2D-POSITIVE CD4+ CELLS” (priority 2005, published 2007).

These are yes or no findings as the source states them, for the method shown. In cells and extracts the contact can be indirect. These calls come from enrichment with a bait or labelling near it, and not all partners need be listed.

The target in the experiment is T1, ERP5 on the cell surface of tumor cells (U266, Hela, A375) (UniProt Q15084 20-440, limits assumed).
T1 construct: whole, on cells; Endogenous protein of tumor cell lines; also called disulfide isomerase-related protein P5; surface ERP5
T1 sequence (looked up): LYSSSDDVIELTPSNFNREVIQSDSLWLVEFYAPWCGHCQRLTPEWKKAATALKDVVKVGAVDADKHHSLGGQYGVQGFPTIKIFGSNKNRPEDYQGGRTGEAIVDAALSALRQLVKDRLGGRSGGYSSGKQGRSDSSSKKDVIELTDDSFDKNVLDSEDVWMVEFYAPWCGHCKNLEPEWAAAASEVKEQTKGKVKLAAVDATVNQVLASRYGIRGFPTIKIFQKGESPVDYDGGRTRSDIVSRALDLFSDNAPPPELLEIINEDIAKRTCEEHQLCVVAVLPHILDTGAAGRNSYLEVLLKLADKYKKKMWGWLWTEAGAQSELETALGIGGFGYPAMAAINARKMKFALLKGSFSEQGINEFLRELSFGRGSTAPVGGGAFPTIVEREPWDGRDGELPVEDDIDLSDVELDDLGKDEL
The experiment can be described thus: affinity chromatography of U266 outer membrane proteins on MICA beads, SDS-PAGE, silver staining, mass spectrometry.

B1: MICA-conjugated sepharose beads (ligand)
chain: EPHSLRYNLTVLSWDGSVQSGFLTEVHLDGQPFLRCDRQKCRAKPQGQWAEDVLGNKTWDRETRDLTGNGKDLRMTLAHIKDQKEGLHSLQEIRVCEIHEDNSTRSSQHFYYDGELFLSQNLETKEWTMPQSSRAQTLAMNVRNFLKEDAMKTKTHYHAMHADCLQELRRYLKSGVVLRRTVPPMVNVTRSEASEGNITVTCRASGFYPWNITLSWRQDGVSLSHDTQQWGDVLPDGNGTYQTWVATRICQGEEQRFTCYMEHSGNHSTHPVPSGK
modifications: coupled to sepharose beads
Consider B1, for which the binding result was “binds”.
